# Measured values taken from US12336535B2, “Oxadiazoline compound or salts thereof, agricultural and horticultural fungicide containing said compound, and method for using same” (priority 2019, dated 2025).
# Some entries share one result that the patent states for a list of compounds. At least one compound was matched to its structure with a doubt left. Some compounds share one range, which may span the group rather than tell each member.
# Tested on: soybean rust (Phakopsora pachyrhizi)
# Assay: Fungicidal efficacy test for soybean rust
# Type: in vivo
# Conditions: treatment concentration 50 ppm, foliage spray on soybean (Enrei, 2-leaf stage) before inoculation, assessed about 10 days later
row,SMILES,control value (assessment criteria grade)
1,FC(F)(F)C1NC(c2ccc(Cn3cnc(Cl)n3)s2)=NO1 (racemic) [3-54],8 (Control value 80-89%)
2,FC(F)(F)C1NC(c2ccc(Cn3ccnn3)s2)=NO1 (racemic) [3-60],8 (Control value 80-89%)
3,FC(F)(F)C1NC(c2ccc(Cn3nccn3)s2)=NO1 (racemic) [3-64],8 (Control value 80-89%)
4,O=C1CCC(=O)N1Cc1ccc(C2=NOC(C(F)(F)F)N2)s1 (racemic) [3-69],8 (Control value 80-89%)
5,FC(F)(F)C1NC(c2ccc(Cn3nc4cccnc4n3)s2)=NO1 (racemic) [3-89],8 (Control value 80-89%)
6,FC(F)(F)C1NC(c2ccc(Cn3nnc4ncccc43)s2)=NO1 (racemic) [3-97],8 (Control value 80-89%)
7,CN(Cc1ccc(C2=NOC(C(F)(F)F)N2)s1)S(C)(=O)=O (centres unmarked) [1-1],8 (Control value 80-89%)
8,CN(Cc1ccc(C2=NOC(C(F)(F)F)N2)s1)C(=O)C1CC1 (centres unmarked) [1-14],8 (Control value 80-89%)
9,CN(Cc1ccc(C2=NOC(C(F)(F)F)N2)s1)C(=O)c1ccccc1 (centres unmarked) [1-16],8 (Control value 80-89%)
10,CCNC(=O)N(C)Cc1ccc(C2=NOC(C(F)(F)F)N2)s1 (centres unmarked) [1-20],8 (Control value 80-89%)
11,CN(Cc1ccc(C2=NOC(C(F)(F)F)N2)s1)C(=O)NC(C)(C)C (centres unmarked) [1-23],8 (Control value 80-89%)
12,COC(NC(=O)C(C)C)c1ccc(C2=NOC(C(F)(F)F)N2)s1 (centres unmarked) [1-31],8 (Control value 80-89%)
13,CCCC(=O)NC(OC)c1ccc(C2=NOC(C(F)(F)F)N2)s1 (centres unmarked) [1-32],8 (Control value 80-89%)
14,COC(NC(=O)C1CC1)c1ccc(C2=NOC(C(F)(F)F)N2)s1 (centres unmarked) [1-33],8 (Control value 80-89%)
15,COC(NC(=O)c1ccccc1)c1ccc(C2=NOC(C(F)(F)F)N2)s1 (centres unmarked) [1-35],8 (Control value 80-89%)
16,COCC(=O)NC(OC)c1ccc(C2=NOC(C(F)(F)F)N2)s1 (centres unmarked) [1-36],8 (Control value 80-89%)
17,COC(NC(=O)C1CCOCC1)c1ccc(C2=NOC(C(F)(F)F)N2)s1 (centres unmarked) [1-37],8 (Control value 80-89%)
18,CCNC(=O)N(Cc1ccc(C2=NOC(C(F)(F)F)N2)s1)OC (centres unmarked) [1-38],8 (Control value 80-89%)
19,CCC(=O)NC(OC)c1ccc(C2=NOC(C(F)(F)F)N2)s1 (centres unmarked) [1-44],8 (Control value 80-89%)
20,CCOC(NC(=O)CC)c1ccc(C2=NOC(C(F)(F)F)N2)s1 (centres unmarked) [1-45],8 (Control value 80-89%)
21,CCCOC(NC(=O)CC)c1ccc(C2=NOC(C(F)(F)F)N2)s1 (centres unmarked) [1-46],8 (Control value 80-89%)
22,COC(NC(=O)c1ccncn1)c1ccc(C2=NOC(C(F)(F)F)N2)s1 (centres unmarked) [1-49],8 (Control value 80-89%)
23,CNC(=S)c1ccc(C2=NOC(C(F)(F)F)N2)s1 (centres unmarked) [2-23],8 (Control value 80-89%)
24,FC(F)(F)C1NC(c2ccc(Cn3cncn3)s2)=NO1 (centres unmarked) [3-17],8 (Control value 80-89%)
25,CCS(=O)(=O)Cc1ccc(C2=NOC(C(F)(F)F)N2)s1 (centres unmarked) [3-43],8 (Control value 80-89%)
26,CC1(C)CON(Cc2ccc(C3=NOC(C(F)(F)F)N3)s2)C1=O (centres unmarked) [3-44],8 (Control value 80-89%)
